Laboratory results: the supplement of paper PMC10849652
The other results are listed elsewhere or left out.

Chains of the proteins cited; added tags and fusions are not shown. Lines headed by an entry give the natural chain unless they say otherwise; changes in a name come on top.
UniProt O43175: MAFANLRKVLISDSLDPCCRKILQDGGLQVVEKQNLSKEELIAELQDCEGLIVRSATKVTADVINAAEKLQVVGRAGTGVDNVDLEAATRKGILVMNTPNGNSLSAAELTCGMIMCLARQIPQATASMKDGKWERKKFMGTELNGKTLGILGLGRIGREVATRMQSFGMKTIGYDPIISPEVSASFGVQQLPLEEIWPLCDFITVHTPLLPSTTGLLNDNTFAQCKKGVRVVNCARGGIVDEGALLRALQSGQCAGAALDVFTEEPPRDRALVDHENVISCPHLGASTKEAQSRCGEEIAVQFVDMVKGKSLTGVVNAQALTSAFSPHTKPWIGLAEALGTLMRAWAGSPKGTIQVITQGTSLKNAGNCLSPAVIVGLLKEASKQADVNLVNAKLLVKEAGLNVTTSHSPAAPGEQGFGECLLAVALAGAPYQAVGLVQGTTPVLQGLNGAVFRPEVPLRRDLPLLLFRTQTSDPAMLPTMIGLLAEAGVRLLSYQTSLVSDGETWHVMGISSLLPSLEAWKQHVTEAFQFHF
UniProt Q00169: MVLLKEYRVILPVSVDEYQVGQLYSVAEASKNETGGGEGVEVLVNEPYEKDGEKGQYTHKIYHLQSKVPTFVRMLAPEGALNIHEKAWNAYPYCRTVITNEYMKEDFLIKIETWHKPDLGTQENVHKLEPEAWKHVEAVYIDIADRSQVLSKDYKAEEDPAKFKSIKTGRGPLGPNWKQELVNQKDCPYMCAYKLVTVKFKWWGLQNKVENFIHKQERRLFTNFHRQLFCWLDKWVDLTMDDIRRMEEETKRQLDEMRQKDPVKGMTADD
UniProt O00264: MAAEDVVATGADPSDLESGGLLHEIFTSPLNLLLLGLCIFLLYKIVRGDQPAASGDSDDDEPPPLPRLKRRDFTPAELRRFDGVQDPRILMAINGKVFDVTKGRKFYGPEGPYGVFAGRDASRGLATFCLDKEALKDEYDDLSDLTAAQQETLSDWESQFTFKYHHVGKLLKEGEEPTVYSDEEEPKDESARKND
UniProt Q9NRX4: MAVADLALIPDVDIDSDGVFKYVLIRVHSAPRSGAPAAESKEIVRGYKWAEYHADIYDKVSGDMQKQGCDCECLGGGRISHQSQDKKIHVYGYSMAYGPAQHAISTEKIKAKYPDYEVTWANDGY
UniProt Q13526, whole entry, looked up: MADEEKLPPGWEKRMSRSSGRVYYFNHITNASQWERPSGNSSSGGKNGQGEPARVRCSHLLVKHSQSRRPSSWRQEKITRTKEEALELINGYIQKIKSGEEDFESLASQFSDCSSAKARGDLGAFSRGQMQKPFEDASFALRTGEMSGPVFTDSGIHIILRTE
UniProt Q6PCE3: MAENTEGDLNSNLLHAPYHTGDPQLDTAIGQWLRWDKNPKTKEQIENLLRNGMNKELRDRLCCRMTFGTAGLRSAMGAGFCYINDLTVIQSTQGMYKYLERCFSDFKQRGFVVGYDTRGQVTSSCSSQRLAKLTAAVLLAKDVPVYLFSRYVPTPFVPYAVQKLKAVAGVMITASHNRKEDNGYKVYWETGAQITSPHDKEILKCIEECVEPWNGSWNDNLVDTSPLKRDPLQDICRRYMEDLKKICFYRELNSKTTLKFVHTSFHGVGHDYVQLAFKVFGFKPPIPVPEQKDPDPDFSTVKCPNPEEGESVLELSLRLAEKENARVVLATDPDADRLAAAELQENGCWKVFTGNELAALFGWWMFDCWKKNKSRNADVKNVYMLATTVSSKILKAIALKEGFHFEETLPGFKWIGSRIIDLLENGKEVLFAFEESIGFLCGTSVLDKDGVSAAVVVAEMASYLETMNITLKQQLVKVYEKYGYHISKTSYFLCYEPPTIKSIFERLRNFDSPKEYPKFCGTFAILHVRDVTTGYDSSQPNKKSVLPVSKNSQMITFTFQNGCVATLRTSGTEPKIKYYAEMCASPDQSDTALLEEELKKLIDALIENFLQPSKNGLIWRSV
UniProt Q9NQP4, whole entry, looked up: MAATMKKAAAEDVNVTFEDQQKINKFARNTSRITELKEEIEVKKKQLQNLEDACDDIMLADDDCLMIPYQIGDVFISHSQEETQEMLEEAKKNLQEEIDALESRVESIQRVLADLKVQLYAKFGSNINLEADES
UniProt P00558: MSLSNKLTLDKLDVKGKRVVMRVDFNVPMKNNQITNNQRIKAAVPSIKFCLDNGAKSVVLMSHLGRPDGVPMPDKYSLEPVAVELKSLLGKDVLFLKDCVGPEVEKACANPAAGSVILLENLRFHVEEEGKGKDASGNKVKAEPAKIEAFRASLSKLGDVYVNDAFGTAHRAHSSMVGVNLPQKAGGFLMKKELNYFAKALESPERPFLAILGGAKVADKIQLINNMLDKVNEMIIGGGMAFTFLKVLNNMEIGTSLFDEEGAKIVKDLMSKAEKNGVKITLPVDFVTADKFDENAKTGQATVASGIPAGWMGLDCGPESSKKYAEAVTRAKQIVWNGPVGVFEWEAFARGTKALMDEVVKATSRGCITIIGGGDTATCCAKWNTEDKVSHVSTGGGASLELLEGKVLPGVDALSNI
UniProt Q99570, whole entry, looked up: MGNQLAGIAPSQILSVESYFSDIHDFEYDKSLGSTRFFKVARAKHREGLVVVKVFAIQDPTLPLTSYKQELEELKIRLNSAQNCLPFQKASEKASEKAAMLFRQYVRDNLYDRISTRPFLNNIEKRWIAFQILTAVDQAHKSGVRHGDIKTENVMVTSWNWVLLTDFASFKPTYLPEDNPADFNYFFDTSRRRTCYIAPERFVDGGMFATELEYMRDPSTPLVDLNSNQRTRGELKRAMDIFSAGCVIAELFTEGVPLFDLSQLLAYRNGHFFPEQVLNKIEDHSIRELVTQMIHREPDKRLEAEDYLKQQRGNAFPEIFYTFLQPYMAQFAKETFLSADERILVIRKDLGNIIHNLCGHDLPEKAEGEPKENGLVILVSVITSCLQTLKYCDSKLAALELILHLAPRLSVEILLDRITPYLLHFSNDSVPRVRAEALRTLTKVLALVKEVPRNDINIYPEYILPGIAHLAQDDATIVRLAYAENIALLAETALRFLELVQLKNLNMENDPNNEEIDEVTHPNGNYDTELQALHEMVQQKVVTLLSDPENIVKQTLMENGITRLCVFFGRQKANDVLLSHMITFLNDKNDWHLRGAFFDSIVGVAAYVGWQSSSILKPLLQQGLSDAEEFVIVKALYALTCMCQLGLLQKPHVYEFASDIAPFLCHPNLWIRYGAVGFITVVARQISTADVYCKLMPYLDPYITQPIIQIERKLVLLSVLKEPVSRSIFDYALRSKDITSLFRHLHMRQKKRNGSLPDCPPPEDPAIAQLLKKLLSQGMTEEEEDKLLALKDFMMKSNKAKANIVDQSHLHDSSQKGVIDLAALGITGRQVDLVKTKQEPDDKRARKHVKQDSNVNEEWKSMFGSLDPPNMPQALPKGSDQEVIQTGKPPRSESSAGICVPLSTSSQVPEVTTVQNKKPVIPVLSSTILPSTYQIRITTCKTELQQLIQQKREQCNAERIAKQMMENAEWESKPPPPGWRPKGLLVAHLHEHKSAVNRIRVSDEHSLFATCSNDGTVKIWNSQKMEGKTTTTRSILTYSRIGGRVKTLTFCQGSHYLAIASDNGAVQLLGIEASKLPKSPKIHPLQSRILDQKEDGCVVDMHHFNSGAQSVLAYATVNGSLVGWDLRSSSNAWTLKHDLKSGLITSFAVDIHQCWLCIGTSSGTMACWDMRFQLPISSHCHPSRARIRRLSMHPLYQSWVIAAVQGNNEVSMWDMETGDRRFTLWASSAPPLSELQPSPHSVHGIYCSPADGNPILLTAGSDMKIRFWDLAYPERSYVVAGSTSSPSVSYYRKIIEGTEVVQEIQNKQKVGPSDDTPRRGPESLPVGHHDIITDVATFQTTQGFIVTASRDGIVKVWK
UniProt P35232: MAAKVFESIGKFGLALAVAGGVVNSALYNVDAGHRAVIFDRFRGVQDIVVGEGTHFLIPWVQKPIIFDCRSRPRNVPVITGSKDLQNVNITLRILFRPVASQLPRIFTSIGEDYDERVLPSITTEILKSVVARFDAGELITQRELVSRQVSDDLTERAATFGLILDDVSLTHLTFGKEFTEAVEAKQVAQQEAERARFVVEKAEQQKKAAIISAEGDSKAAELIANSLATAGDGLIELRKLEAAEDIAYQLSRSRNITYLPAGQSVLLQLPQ
UniProt Q9GZP4: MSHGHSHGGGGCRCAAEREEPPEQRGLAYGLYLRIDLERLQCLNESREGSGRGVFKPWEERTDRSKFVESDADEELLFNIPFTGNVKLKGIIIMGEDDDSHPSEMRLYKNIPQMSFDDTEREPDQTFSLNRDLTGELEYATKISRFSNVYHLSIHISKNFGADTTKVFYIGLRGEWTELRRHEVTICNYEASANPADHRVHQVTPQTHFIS
UniProt P48739: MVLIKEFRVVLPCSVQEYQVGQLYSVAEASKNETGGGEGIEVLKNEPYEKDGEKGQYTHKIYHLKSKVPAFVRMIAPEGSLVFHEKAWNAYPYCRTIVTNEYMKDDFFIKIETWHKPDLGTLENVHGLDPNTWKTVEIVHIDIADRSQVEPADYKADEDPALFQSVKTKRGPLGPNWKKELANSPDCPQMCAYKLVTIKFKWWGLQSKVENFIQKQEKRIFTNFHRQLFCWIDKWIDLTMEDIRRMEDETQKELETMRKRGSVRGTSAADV
UniProt Q92643: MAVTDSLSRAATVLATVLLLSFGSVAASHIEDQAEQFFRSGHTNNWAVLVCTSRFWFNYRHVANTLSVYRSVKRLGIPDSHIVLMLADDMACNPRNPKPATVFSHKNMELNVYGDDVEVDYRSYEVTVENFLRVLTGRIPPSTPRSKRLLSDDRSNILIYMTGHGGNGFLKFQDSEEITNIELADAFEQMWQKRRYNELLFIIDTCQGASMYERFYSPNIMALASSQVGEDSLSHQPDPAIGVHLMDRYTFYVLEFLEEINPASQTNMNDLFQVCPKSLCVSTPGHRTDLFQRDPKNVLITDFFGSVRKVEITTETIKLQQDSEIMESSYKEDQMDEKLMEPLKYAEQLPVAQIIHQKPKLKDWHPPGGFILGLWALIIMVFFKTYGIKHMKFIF
UniProt P18669: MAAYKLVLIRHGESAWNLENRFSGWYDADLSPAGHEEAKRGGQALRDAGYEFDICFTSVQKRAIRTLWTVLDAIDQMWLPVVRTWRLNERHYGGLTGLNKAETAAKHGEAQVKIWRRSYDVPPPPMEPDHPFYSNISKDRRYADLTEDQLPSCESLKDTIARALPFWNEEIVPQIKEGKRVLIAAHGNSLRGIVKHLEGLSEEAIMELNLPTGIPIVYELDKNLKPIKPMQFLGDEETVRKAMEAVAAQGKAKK
UniProt Q8N0Y7: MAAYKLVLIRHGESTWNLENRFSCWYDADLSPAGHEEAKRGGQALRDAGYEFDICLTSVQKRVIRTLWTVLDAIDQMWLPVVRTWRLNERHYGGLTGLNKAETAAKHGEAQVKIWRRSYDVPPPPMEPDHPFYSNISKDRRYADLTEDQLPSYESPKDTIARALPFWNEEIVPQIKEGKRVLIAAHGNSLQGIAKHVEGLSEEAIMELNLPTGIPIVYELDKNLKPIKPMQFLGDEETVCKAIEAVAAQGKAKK
UniProt Q16877: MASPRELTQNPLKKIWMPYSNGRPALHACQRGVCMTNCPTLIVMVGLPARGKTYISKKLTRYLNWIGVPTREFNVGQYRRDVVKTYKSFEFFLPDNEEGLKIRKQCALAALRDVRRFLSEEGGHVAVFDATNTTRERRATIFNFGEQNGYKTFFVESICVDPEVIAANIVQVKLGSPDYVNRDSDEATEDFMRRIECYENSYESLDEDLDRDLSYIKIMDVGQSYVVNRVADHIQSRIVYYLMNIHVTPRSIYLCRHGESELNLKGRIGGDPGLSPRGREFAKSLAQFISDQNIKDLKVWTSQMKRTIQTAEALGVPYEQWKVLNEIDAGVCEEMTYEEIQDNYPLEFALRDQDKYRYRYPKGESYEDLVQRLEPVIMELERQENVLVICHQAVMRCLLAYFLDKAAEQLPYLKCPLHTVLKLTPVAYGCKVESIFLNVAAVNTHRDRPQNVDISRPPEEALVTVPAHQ
UniProt O60825: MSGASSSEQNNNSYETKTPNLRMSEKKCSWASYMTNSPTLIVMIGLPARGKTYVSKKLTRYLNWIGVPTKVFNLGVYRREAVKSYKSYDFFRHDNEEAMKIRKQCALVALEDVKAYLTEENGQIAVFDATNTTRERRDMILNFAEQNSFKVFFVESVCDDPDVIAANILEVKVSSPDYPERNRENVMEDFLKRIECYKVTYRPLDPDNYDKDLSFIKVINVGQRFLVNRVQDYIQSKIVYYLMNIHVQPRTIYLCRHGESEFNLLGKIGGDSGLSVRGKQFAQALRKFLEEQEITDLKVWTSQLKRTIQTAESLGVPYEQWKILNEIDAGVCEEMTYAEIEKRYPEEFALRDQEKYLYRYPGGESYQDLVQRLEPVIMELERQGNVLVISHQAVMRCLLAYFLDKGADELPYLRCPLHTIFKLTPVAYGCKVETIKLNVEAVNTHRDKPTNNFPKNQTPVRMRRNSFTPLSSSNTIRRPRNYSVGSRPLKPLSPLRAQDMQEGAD

Key:
Experiment in all cases: log2 fold change, soluble protein after heating vs DMSO (PISA); higher = thermal stabilisation; K562 cells, 10 uM, 30 min; active = over 0.2 and 3.5 SD of the protein, either way, in both replicates (recomputed)
[1] = compound: CC[C@@H]1C(=O)N(C)c2cnc(Nc3ccc(C(=O)NC4CCN(C)CC4)cc3OC)nc2N1C1CCCC1
Outline: (§1)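 For each measurement, 10 μM compound was applied for 30 min to K562 cells at 2×10^6 cells/mL. Aliquots were heated for 3 min across 48°C-58°C, pooled, and extracted in PBS with 0.5% NP-40 at 4°C; the supernatant after 21,000xg for 90 min was soluble protein. This was quantified by TMTpro 16plex LC-MS/MS with channel sums equalised, and thermal stability was reported relative to control samples from duplicates, on a log2 fold-change scale.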

volasertib = compound: CC[C@@H]1C(=O)N(C)c2cnc(Nc3ccc(C(=O)N[C@H]4CC[C@H](N5CCN(CC6CC6)CC5)CC4)cc3OC)nc2N1C(C)C [volasertib]
Outline: as §1

[2] = compound: CC[C@H](C)N1C=C(C2=C(C=C(C=C21)C3=CN=C(C=C3)N4CCNCC4)C(=O)NCC5=C(C=C(NC5=O)C)C)C
Outline: as §1

epoxomicin = compound: CC[C@H](C)[C@@H](C(=O)N[C@@H]([C@@H](C)O)C(=O)N[C@@H](CC(C)C)C(=O)[C@]1(CO1)C)NC(=O)[C@H]([C@@H](C)CC)N(C)C(=O)C [epoxomicin]
Outline: as §1

[3] = compound: CCn1c(C(=O)N(C2CC2)C2CC2)cc2c3c(ncn3C)c(Nc3cc(C)n(C)n3)nc21
Outline: as §1

[4] = compound: CCn1cc(-c2ccnc3[nH]c(-c4cccc(CN(C)C)c4)cc23)c(-c2ccc(NC(=O)N(C)C)cc2)n1
Outline: as §1

[5] = compound: CN(C)CC(=O)Nc1ccc2[nH]c(=O)c3ccccc3c2c1
Outline: as §1

rosiglitazone = compound: CN(CCOC1=CC=C(C=C1)C[C@H]2C(=O)NC(=O)S2)C3=CC=CC=N3 (racemic) [rosiglitazone]
Outline: as §1

[6] = compound: CN1C2=C(C3=C1C(=O)N(N=C3)CC4=CC(=CC=C4)N)SC(=C2)S(=O)C
Outline: as §1

[7] = compound: CN1CCC(CNc2ccc3ncc(-c4cccc(OC(F)(F)F)c4)n3n2)CC1
Outline: as §1

Measured: log2 fold change

PHGDH (UniProt O43175)
inactive: [1] -0.028 | volasertib 0.013 | [2] -0.015 | epoxomicin 0.013 | [3] 0.027 | [4] 0.013 | [5] -0.014 | rosiglitazone -0.009 | [6] -0.056 | [7] -0.01

PITPNA (UniProt Q00169)
inactive: [1] -0.032 | volasertib 0.009 | [2] -0.015 | epoxomicin 0.066 | [3] -0.01 | [4] -0.001 | [5] -0.049 | rosiglitazone -0.007 | [6] -0.098 | [7] -0.049

PGM2 (UniProt Q96G03)
inactive: [1] 0.033 | volasertib 0.061 | [2] -0.041 | epoxomicin 0 | [3] 0.011 | [4] -0.011 | [5] 0 | rosiglitazone 0.01 | [6] -0.046 | [7] -0.004

PGRMC1 (UniProt O00264)
inactive: [1] -0.021 | volasertib -0.054 | [2] -0.014 | epoxomicin 0.033 | [3] 0.01 | [4] -0.01 | [5] 0.004 | rosiglitazone -0.016 | [6] -0.037 | [7] 0.142

PHPT1 (UniProt Q9NRX4)
inactive: [1] -0.021 | volasertib 0.065 | [2] 0.012 | epoxomicin 0.016 | [3] 0.096 | [4] -0.011 | [5] 0.018 | rosiglitazone 0.006 | [6] -0.076 | [7] -0.076

PIGS (UniProt Q96S52)
inactive: [1] -0.02 | volasertib -0.122 | [2] -0.015 | epoxomicin -0.033 | [3] 0.02 | [4] 0.017 | [5] -0.018 | rosiglitazone 0.007 | [6] -0.06 | [7] 0.055

PIN1 (UniProt Q13526)
inactive: [1] -0.029 | volasertib -0.173 | [2] 0.018 | epoxomicin 0.043 | [3] 0.016 | [4] -0.054 | [5] 0.034 | rosiglitazone 0.011 | [6] 0.012 | [7] -0.007

PHACTR2 isoform 4 (UniProt O75167)
inactive: [1] 0.035 | volasertib -0.011 | [2] -0.289 | epoxomicin -0.047 | [3] 0.003 | [4] -0.047 | [5] -0.095 | rosiglitazone 0.048 | [6] 0.137 | [7] 0.108

Quoted from the entries so far (2 entries):
PIGS (UniProt Q96S52)
inactive: [1] -0.02 | volasertib -0.122 | [2] -0.015 | epoxomicin -0.033 | [3] 0.02 | [4] 0.017 | [5] -0.018 | rosiglitazone 0.007 | [6] -0.06 | [7] 0.055

PIN1 (UniProt Q13526)
inactive: [1] -0.029 | volasertib -0.173 | [2] 0.018 | epoxomicin 0.043 | [3] 0.016 | [4] -0.054 | [5] 0.034 | rosiglitazone 0.011 | [6] 0.012 | [7] -0.007

(listing goes on)

PLCH1 (UniProt Q4KWH8)
inactive: [1] 0.082 | volasertib -0.059 | [2] 0.041 | epoxomicin 0.07 | [3] -0.076 | [4] 0.067 | [5] 0.008 | rosiglitazone 0.055 | [6] -0.015 | [7] 0.024

PLEC (UniProt Q15149)
inactive: [1] 0.118 | volasertib 0.04 | [2] -0.025 | epoxomicin -0.067 | [3] -0.042 | [4] -0.003 | [5] -0.037 | rosiglitazone -0.059 | [6] 0.192 | [7] 0.014

PGM2L1 (UniProt Q6PCE3)
inactive: [1] 0.002 | volasertib -0.014 | [2] -0.032 | epoxomicin -0.006 | [3] 0.053 | [4] -0.017 | [5] -0.094 | rosiglitazone 0.004 | [6] -0.036 | [7] -0.086

PFDN4 (UniProt Q9NQP4)
inactive: [1] -0.055 | volasertib 0.054 | [2] 0.008 | epoxomicin -0.026 | [3] -0.002 | [4] 0.009 | [5] -0.045 | rosiglitazone 0.024 | [6] 0 | [7] -0.023

PGK1 (UniProt P00558)
inactive: [1] -0.01 | volasertib 0.132 | [2] 0.015 | epoxomicin 0.04 | [3] 0.025 | [4] -0.03 | [5] -0.007 | rosiglitazone 0.023 | [6] -0.119 | [7] 0.01

PIK3R4 (UniProt Q99570)
inactive: [1] 0.056 | volasertib 0.005 | [2] 0.022 | epoxomicin -0.02 | [3] 0.085 | [4] -0.038 | [5] -0.007 | rosiglitazone 0.029 | [6] -0.052 | [7] 0.042

PHB (UniProt P35232)
inactive: [1] 0.012 | volasertib 0.094 | [2] -0.057 | epoxomicin 0.004 | [3] 0.012 | [4] 0.016 | [5] -0.024 | rosiglitazone -0.003 | [6] 0.003 | [7] 0.03

PEX2 (UniProt P28328)
inactive: [1] 0.161 | volasertib 0.066 | [2] 0.063 | epoxomicin 0.02 | [3] 0.01 | [4] 0.054 | [5] 0.023 | rosiglitazone 0.086 | [6] -0.123 | [7] -0.105

PLCD1 isoform 2 (UniProt P51178)
inactive: [1] 0.031 | volasertib 0.117 | [2] 0.068 | epoxomicin 0.006 | [3] -0.022 | [4] -0.09 | [5] -0.014 | rosiglitazone 0.048 | [6] -0.011 | [7] -0.078

PHACTR4 isoform 2 (UniProt Q8IZ21)
inactive: [1] 0.039 | volasertib 0.068 | [2] 0.014 | epoxomicin 0.016 | [3] 0.001 | [4] -0.033 | [5] -0.025 | rosiglitazone -0.004 | [6] -0.043 | [7] -0.143

PICALM (UniProt H0YEY8)
inactive: [1] -0.042 | volasertib -0.099 | [2] -0.051 | epoxomicin -0.01 | [3] 0.048 | [4] 0.171 | [5] -0.08 | rosiglitazone -0.054 | [6] -0.018 | [7] -0.035

PHF19 isoform 2 (UniProt Q5T6S3)
inactive: [1] -0.092 | volasertib -0.267 | [2] 0.036 | epoxomicin 0.188 | [3] -0.012 | [4] -0.011 | [5] 0.07 | rosiglitazone 0.061 | [6] -0.043 | [7] -0.011

PITHD1 (UniProt Q9GZP4)
inactive: [1] -0.024 | volasertib 0.029 | [2] 0.033 | epoxomicin 0.012 | [3] 0.025 | [4] 0.011 | [5] -0.046 | rosiglitazone -0.067 | [6] -0.039 | [7] -0.061

PITPNB isoform 3 (UniProt P48739)
inactive: [1] 0.072 | volasertib 0.072 | [2] -0.002 | epoxomicin 0.027 | [3] -0.005 | [4] -0.026 | [5] 0.015 | rosiglitazone 0.01 | [6] -0.083 | [7] 0.023

PIGK (UniProt Q92643)
inactive: [1] -0.03 | volasertib -0.028 | [2] 0.03 | epoxomicin 0.023 | [3] -0.013 | [4] -0.033 | [5] -0.064 | rosiglitazone 0.003 | [6] -0.004 | [7] -0.054

PGAM1 (UniProt P18669)
inactive: [1] -0.02 | volasertib 0.051 | [2] -0.016 | epoxomicin 0.024 | [3] 0.013 | [4] -0.004 | [5] -0.002 | rosiglitazone 0.013 | [6] -0.064 | [7] -0.001

PGAM4 (UniProt Q8N0Y7)
inactive: [1] 0.019 | volasertib 0.11 | [2] -0.051 | epoxomicin -0.026 | [3] 0.008 | [4] 0.012 | [5] 0.004 | rosiglitazone 0.015 | [6] -0.027 | [7] -0.03

PFKFB4 (UniProt Q16877)
inactive: [1] 0.053 | volasertib -0.098 | [2] 0.081 | epoxomicin -0.036 | [3] -0.026 | [4] 0.015 | [5] 0.016 | rosiglitazone 0.039 | [6] -0.04 | [7] 0.008

PFKFB2 (UniProt O60825)
inactive: [1] -0.012 | volasertib -0.018 | [2] 0.007 | epoxomicin 0.003 | [3] 0 | [4] 0.004 | [5] 0.041 | rosiglitazone -0.016 | [6] -0.135 | [7] -0.152
